This is an account of results in PMC7374096.

Sequences of proteins named here, by UniProt entry; tags and fusion partners are left off. A change or cut given only in a name is not applied to a line headed by its entry. Residues count along the entry.
GFP-RLD1 fusion containing 365–794 amino acid residues of HERC1 (pFG41 construct) (Q15751, residues 365-794): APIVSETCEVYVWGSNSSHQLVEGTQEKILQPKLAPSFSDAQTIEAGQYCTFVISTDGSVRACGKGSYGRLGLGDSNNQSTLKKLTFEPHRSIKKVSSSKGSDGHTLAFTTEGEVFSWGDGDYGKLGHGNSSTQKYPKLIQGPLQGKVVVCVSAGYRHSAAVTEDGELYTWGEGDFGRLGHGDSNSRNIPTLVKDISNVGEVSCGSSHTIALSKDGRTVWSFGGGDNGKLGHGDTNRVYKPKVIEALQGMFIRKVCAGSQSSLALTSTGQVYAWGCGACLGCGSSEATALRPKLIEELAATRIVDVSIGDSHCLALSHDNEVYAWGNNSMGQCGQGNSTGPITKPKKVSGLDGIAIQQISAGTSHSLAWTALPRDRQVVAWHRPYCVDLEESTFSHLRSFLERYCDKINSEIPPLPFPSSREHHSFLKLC
UniProt Q00610: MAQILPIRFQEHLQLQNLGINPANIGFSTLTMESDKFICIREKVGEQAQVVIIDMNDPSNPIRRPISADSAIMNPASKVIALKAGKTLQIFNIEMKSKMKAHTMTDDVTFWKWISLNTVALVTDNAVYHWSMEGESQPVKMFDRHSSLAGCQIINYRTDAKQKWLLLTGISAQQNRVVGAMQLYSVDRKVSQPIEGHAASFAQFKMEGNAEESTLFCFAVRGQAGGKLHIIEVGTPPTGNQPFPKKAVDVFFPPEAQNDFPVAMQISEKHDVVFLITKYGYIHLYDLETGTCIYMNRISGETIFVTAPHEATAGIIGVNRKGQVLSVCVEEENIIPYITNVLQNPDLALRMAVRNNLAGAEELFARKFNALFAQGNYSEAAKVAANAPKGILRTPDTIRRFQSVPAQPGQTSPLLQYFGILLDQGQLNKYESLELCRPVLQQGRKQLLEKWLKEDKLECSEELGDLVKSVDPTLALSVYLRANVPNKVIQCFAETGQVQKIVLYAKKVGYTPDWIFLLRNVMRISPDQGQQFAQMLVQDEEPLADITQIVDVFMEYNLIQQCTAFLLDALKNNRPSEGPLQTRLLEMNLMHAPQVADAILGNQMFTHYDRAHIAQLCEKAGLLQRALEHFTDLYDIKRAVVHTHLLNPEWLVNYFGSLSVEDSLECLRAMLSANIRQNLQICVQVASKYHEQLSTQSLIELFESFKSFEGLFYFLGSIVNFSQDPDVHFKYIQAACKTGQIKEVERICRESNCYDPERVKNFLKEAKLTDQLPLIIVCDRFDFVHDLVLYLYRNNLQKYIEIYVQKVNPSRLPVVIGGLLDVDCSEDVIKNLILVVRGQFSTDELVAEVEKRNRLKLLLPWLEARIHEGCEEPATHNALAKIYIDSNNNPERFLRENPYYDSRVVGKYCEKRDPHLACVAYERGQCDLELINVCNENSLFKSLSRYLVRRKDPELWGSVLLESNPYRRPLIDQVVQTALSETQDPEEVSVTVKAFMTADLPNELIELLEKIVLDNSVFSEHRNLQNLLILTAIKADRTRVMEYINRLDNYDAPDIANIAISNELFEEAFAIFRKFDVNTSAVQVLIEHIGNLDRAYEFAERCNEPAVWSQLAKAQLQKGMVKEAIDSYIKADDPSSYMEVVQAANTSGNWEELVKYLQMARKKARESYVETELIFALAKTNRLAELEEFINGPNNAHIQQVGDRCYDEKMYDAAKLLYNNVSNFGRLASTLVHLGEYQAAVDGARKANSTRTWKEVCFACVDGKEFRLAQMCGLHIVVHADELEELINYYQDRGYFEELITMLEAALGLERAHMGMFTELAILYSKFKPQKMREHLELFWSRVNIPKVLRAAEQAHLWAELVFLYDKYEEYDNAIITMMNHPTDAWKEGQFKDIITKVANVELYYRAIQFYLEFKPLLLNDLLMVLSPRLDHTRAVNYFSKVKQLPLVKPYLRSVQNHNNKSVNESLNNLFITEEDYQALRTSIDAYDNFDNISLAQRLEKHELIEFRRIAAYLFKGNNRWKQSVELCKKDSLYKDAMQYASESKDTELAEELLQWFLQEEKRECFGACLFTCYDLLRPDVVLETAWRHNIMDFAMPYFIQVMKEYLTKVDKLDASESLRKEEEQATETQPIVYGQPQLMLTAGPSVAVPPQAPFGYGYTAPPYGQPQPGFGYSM

Assay [1] concerns the target GFP-RLD1 fusion (HERC1 365–794) with the tambaleante mutation Gly483Glu (pFG44 construct) (UniProt Q15751). Description: pull-down; GFP fusion constructs expressed in HEK-293T cells for 72 h; cell lysates incubated with GFP-Trap Agarose resin about 2 h at 4 °C; washed three times with NP40 buffer; retained proteins immunoblotted (anti-clathrin heavy chain, anti-GFP, anti-HERC1). (In general: Immunoblotting shows a protein as a band on a membrane.)

The target of assay [2] is GFP-RLD1 fusion containing 365–794 amino acid residues of HERC1 (pFG41 construct) (UniProt Q15751). The assay is described as above.

No constants are given. Whether binding was seen depends on the method and setting. In cells and extracts the contact can be indirect. Some binding calls cover weakened binding; strength is not graded here.

Consider “clathrin heavy chain (from UniProt Q00610 1-1675)”, for which the results for the binding result in assay [1] and in assay [2] were “no binding” and “binds”, respectively.
